A short description of the experiment: qHTS Assay for Lipid Storage Modulators in Drosophila S3 Cells.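 As to cell number change: cells counted by Cell Tracker Red CMTPX staining in the red channel.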 The following applies: BODIPY lipid droplet fluorescence, 18-24 h; for cell number change: measured here: cell count max response, cells fed with added oleic acid. In a few lines: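 Drosophila S3 cells got compounds at several concentrations plus oleic acid (400 uM solution). Laser-scanning cytometry with 488 nm excitation read lipid droplets at 500-530 nm and cells at 575-640 nm. Percent activity was relative to 20 uM Triacsin C.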

Where [1] appears, read: measured here: cell number channel AC50, cells fed with added oleic acid.
Where [2] appears, read: measured here: lipid fluorescence (Fed channel) AC50, cells fed with added oleic acid.

Consider 57 compounds from PubChem BioAssay AID2685 (National Center for Advancing Translational Sciences (NCATS), 2010).

Molecules are shown by their SMILES. The list shows a part of the results. Shown are side measurements of this screen, not its main read-out; they come without a call. Most of these compounds were active or inconclusive in the main read-out, so they are no random draw. Words in brackets tell the shape of the fitted curve; partial curves, single points and poor fits give uncertain potencies.

As for `COc1cccc(N(CC(=O)NCc2cccnc2)S(C)(=O)=O)c1`, the cell number change came to 1.14%. The AC50 under setting [1] was 6.51 µM [falling, single point]. For the same compound, the AC50 under setting [2] was 6.51 µM [falling, single point].

Take `CC(C)N1C(=O)CCC1C(=O)NCc1ccc(F)cc1Cl` (configuration not stated): the cell number change was 1.42%.

On to `COc1cccc(CN(C)C(=O)CC23CC4CC(CC(C4)C2)C3)c1OC`, for which the cell number change was -17.1%.

For `CC(C)(C)C(=O)c1no[n+]([O-])c1/C(=N/O)C(C)(C)C`, the cell number change is -49.5%. Under setting [1], the half-maximal activity concentration (AC50) was 20.6 µM [falling, single point]. Besides, the AC50 under setting [2] was 23.1 µM [falling, single point].

Consider `CC(C)=CCCC1(C)C=Cc2c(c(C)cc3c2[nH]c2cc(O)ccc23)O1` (configuration not stated), for which the cell number change was -72.5%. Moreover, the AC50 under setting [1] was 18.4 µM [falling, partial curve]. Also, the AC50 under setting [2] is 14.6 µM [falling, partial curve, poor fit].

With `O=C(CCCCC(=O)NCCCc1ccccc1)NCCCc1ccccc1`, the AC50 under setting [2] is 16.4 µM [falling, partial curve, poor fit].

`Cc1ccccc1C(=O)N1CCC(C(=O)Nc2nc3ccc(F)cc3s2)CC1`: the cell number change is -6.08%. For the same compound, under setting [1], the half-maximal activity concentration (AC50) was 0.411 µM [rising, full curve]. The AC50 under setting [2] was 0.58 µM [rising, partial curve].

Take `COc1cc(O)c(C(CC(=O)N2CCOCC2)c2ccc(N(C)C)cc2)c(OC)c1` (configuration not stated): the cell number change came out at 33.6%. Under setting [2], the AC50 was 29.1 µM [rising, single point].

For `Cc1ccc(S(=O)(=O)NC(N)=NCCc2ccc(Cl)cc2)cc1`, the cell number change is 31.9%. In addition, the AC50 under setting [1] is 29.1 µM [rising, single point]. Further, under setting [2], the AC50 was 18.4 µM [rising, single point].

For the compound `Cc1ccccc1S(=O)(=O)Cc1ccc(C(=O)N2CC(C)CC(C)C2)o1` (configuration not stated), the cell number change came out at 43.7%. Besides, the AC50 under setting [1] was 29.1 µM [rising, single point]. For the same compound, the concentration at half-maximal activity (AC50) under setting [2] was 29.1 µM [rising, single point].

Turning to `O=C(O)CCc1ncc(C(F)(F)F)cc1Cl`, the cell number change is -21.4%.

`Cc1c(Cl)cccc1NC(=O)Nc1cc(C(C)(C)C)nn1C`: the cell number change is -43.5%. For the same compound, the AC50 under setting [1] was 29.1 µM [falling, single point]. Besides, under setting [2], the concentration at half-maximal activity (AC50) was 29.1 µM [falling, single point].

On to `CCOc1ccc(S(=O)(=O)Nc2ccc(Cl)cn2)c(C)c1C`, for which the AC50 under setting [1] is 6.51 µM [falling, single point] and the AC50 under setting [2] was 6.51 µM [falling, single point].

`Cc1csc(NC(=O)C(C)Oc2ccc(Br)cc2)n1` (configuration not stated): the cell number change worked out at 23.7%.

As for `COc1ccc(N2CCN(C(C)=C3C(=O)c4ccccc4C3=O)CC2)cc1`, the cell number change is -18.8%. Moreover, the AC50 under setting [2] was 23.1 µM [falling, single point].

Take `COc1ccccc1NC(=O)Nc1ccc2c(c1)OCCO2`: the cell number change came to 18.9%. Besides, the AC50 under setting [2] was 29.1 µM [rising, single point].

For the compound `COc1ccc(-c2nc3ccccn3c2/N=C/c2ccc(OC)c(OC)c2)cc1O`, the cell number change turned out to be 19.1%. In addition, the AC50 under setting [1] is 6.51 µM [rising, single point].

For the compound `CN(C)S(=O)(=O)c1cccc(C(=O)Nc2cc(Cl)cc(Cl)c2)c1`, the cell number change came out at 25.3%. Under setting [2], the half-maximal activity concentration (AC50) was 6.51 µM [falling, single point].

In the case of `COc1ccc(CCNC(=O)CSc2nnc3ccc(-c4cccnc4)nn23)cc1`, the cell number change is -37.5%. The AC50 under setting [1] was 32.6 µM [falling, single point]. Besides, under setting [2], the AC50 is 20.6 µM [falling, single point].

In the case of `Cc1cccc(NC2=C(NC(=O)c3ccccc3)C(=O)c3ccccc3C2=O)c1`, the cell number change was -55.4%. Besides, the AC50 under setting [1] was 18.4 µM [falling, single point]. In addition, the AC50 under setting [2] was 16.4 µM [falling, single point].

Turning to `CN(C)CCCNC(=O)c1cc(Br)ccc1Cl`, the cell number change was -125%. In addition, the AC50 under setting [1] is 29.1 µM [falling, partial curve]. Also, the AC50 under setting [2] is 0.651 µM [falling, single point].

With `Cn1cnnc1SCC(=O)Nc1cccc(C(=O)O)c1`, the cell number change is -58.7%. For the same compound, the AC50 under setting [1] was 32.6 µM [falling, single point]. The AC50 under setting [2] is 25.9 µM [falling, partial curve].

In the case of `O=C(Nc1cnn(C23CC4CC(CC(C4)C2)C3)c1)c1cc(-c2ccccc2)on1`, the cell number change is -14%. Moreover, the AC50 under setting [2] was 0.00461 µM [rising, full curve, poor fit].

Consider `O=C(NCc1cc([N+](=O)[O-])ccc1O)c1cccc(NS(=O)(=O)c2ccccc2)c1`, for which the cell number change came to 14.1%. The concentration at half-maximal activity (AC50) under setting [2] is 0.13 µM [falling, full curve, poor fit].

As for `O=C(CN1C(=O)COc2ccccc21)N(Cc1cccnc1)Cc1cccc(F)c1`, the cell number change was found to be 19.7%. Besides, under setting [2], the AC50 is 3.66 µM [rising, partial curve].

For `CCOC(=O)CCCCC(=O)c1[nH]c(=O)[nH]c1Cn1cnc2ccccc21`, the cell number change amounted to 6.95%. Moreover, the AC50 under setting [2] was 9.2 µM [rising, partial curve, poor fit].

For the compound `CC(C)(C)c1csc(NC(=O)c2c(F)c(F)c(F)c(F)c2F)n1`, the cell number change is -17.1%.

In the case of `COc1ccc(S(=O)(=O)Nc2cc(C)ccc2OC)cc1C`, the AC50 by setting is: under setting [1], 2.06 µM [rising, partial curve, poor fit]; under setting [2], 2.31 µM [rising, partial curve].

In the case of `O=C(CCn1c(=O)c2ccccc2n(Cc2ccccc2)c1=O)NC1CCN(Cc2ccccc2)CC1`, the cell number change is -20.5%. Under setting [2], the AC50 was 2.06 µM [falling, full curve, poor fit].

Take `Cc1ccc(NC(=O)CNc2ccccc2N2CCCC2=O)cc1S(=O)(=O)N1CCCCC1`: the cell number change is 3.03%.

As to `O=C(NCc1ccccc1Cl)C1CCN(c2ncnc3c2nc2n3CCCCC2)CC1`, the cell number change was found to be 94.1%. Further, under setting [1], the AC50 was 13 µM [rising, partial curve]. Besides, the AC50 under setting [2] was 5.17 µM [rising, single point].

On to `O=C(CNC(=O)C1(c2ccccc2)CC1)Nc1ccc(F)c(F)c1`, for which the cell number change came out at 3.96%. Besides, the AC50 under setting [2] is 0.651 µM [falling, single point].

Regarding `COc1ccc2nc3cc(Cl)ccc3c(Nc3cc(CN4CCCC4)c(O)c(CN4CCCC4)c3)c2n1`, the cell number change worked out at 4.42%. Also, the AC50 under setting [2] is 0.0082 µM [falling, full curve, poor fit].

With `COc1ccc(CCNC(=O)CN2CCOc3ccccc32)cc1OC`, the cell number change is 0.193%. Further, under setting [2], the AC50 is 5.8 µM [rising, full curve, poor fit].

Regarding `Cc1c(Cl)c([N+](=O)[O-])nn1CC(=O)NC(C)c1ccccc1` (configuration not stated), the cell number change was -1.93%.

As for `Nc1ccccc1-c1n[nH]c(=S)s1`, the cell number change amounted to 14.1%.

`CC(=O)Nc1cccc(/C(C)=N/NC(N)=S)c1`: the cell number change is -8.53%.

For `Cc1cccc(N2CCN(C(=O)c3ccc(CNc4c(N5CCC(C)CC5)c(=O)c4=O)cc3)CC2C)c1` (configuration not stated), the cell number change is 0.101%. Further, under setting [2], the AC50 was 5.8 µM [falling, single point].

With `Cc1ccc(CC23CN4CCN(CC(C4)C2O)C3)c(C)c1` (configuration not stated), the cell number change came out at 3.25%. Further, under setting [2], the AC50 is 0.184 µM [rising, full curve, poor fit].

For the compound `Cc1ccc2nc(SCC(=O)N(C)C3CCS(=O)(=O)C3)[nH]c2c1` (configuration not stated), the AC50 under setting [2] was 20.6 µM [falling, partial curve].

In the case of `COc1ccc(S(=O)(=O)N2CCN(CC3CC=CCC3)CC2)cc1` (configuration not stated), the cell number change was -6.76%. For the same compound, under setting [2], the AC50 is 6.51 µM [rising, single point].

For the compound `Cc1ccc(-c2nnn(CC(=O)N3CCN(c4ccccc4)CC3)n2)o1`, the cell number change came out at 18.3%. Further, the AC50 under setting [2] is 2.59 µM [rising, single point].

For `CCOC(=O)N1CCC(Nc2ncnc3c2cnn3-c2ccc(Cl)cc2)CC1`, the AC50 runs as follows: under setting [1], 0.00461 µM [rising, full curve, poor fit]; under setting [2], 0.00517 µM [rising, full curve, poor fit].

`COc1ccc(NC(=O)c2cc(C(=O)Nc3ccc(OC)cc3OC)cc([N+](=O)[O-])c2)c(OC)c1`: the cell number change is -2.1%.

For `Cc1ccc(N(C(=O)Cn2nnc(-c3ccc(C)o3)n2)C(C(=O)NC2CCCC2)c2ccncc2)cc1` (configuration not stated), the cell number change is -2.56%.

For `O=C(CN1CCN(c2ccc(Cl)cc2)CC1)Nc1ccc(F)c(F)c1`, the cell number change was 90.4%. Besides, the AC50 under setting [1] is 29.1 µM [rising, single point]. For the same compound, under setting [2], the AC50 is 29.1 µM [rising, single point].

Regarding `Cn1ncnc1SCc1cn2cccnc2n1`, the cell number change was 122%. Besides, the AC50 under setting [1] is 18.4 µM [rising, single point]. Also, under setting [2], the AC50 was 29.1 µM [rising, single point].

`CCOC(=O)C1CCN(c2c(NCCCN3CCCCC3)c(=O)c2=O)CC1`: the cell number change was -9.1%. The AC50 under setting [2] is 0.00517 µM [falling, full curve, poor fit].

On to `COc1ccccc1C(=O)/C=C/c1ccc(N2CCCCC2)c([N+](=O)[O-])c1`, for which the cell number change is -60.2%. Further, the AC50 under setting [1] is 18.4 µM [falling, partial curve]. Besides, the AC50 under setting [2] was 16.4 µM [falling, partial curve].

As to `O=C(CN1CCN(c2ccccc2)CC1)Nc1ccc(OCc2ccccc2)cc1`, the cell number change came out at 25.7%. For the same compound, under setting [2], the AC50 was 2.06 µM [rising, partial curve].

Consider `CCOC(=O)C1(CCC(C)C)CC(CSc2nc3ccccc3[nH]2)OC1=O` (configuration not stated), for which the cell number change is -20.8%. Moreover, the AC50 under setting [2] was 13 µM [rising, partial curve].

In the case of `CCOc1nc(-c2ccc(C)cc2)ccc1-c1noc(-c2cccnc2)n1`, the cell number change came out at 8.97%. Also, the AC50 under setting [2] was 11.6 µM [rising, partial curve].

Consider `CCOC(=O)c1oc2ccc(S(=O)(=O)n3nc(-c4ccccc4)cc3N)cc2c1C`, for which the cell number change is -50.4%. Under setting [1], the AC50 is 20.6 µM [falling, single point]. The AC50 under setting [2] is 18.4 µM [falling, single point].

Take `CCOC(=O)CSc1nc2cc(OCC)ccc2cc1C#N`: the cell number change is -31.3%. Further, the AC50 under setting [1] is 32.6 µM [falling, single point]. In addition, the AC50 under setting [2] is 6.51 µM [rising, single point].

In the case of `Cc1ccc(C(=O)Nc2cccc(C(F)(F)F)c2)cc1NC(=O)c1cnnc2ccccc12`, the cell number change is -28.6%.

In the case of `O=C(COc1coc(CN2CCN(c3ccccc3)CC2)cc1=O)Nc1ccccc1`, the cell number change is -6.37%. For the same compound, under setting [2], the AC50 was 6.51 µM [rising, single point].

For `CCc1ccc(-c2cc(-c3n[nH]c(=S)n3CC)c3ccccc3n2)cc1`, the cell number change was 6.66%. Further, the AC50 under setting [2] was 20.6 µM [rising, single point].

Broadly, the AC50 is the concentration giving half of the maximal activity seen. A low value points to greater potency.
